24 compounds from PubChem BioAssay AID330 (DTP/NCI, 2004) can be followed below.

The experiment deals with P388 leukemia ip, CD2F1 mice, survival T/C. Nature of the experiment: NCI In Vivo Anticancer Drug Screen. Data for tumor model P388 Leukemia (intraperitoneal) in CD2F1 (CDF1) mice. Conditions: T/C endpoint: median survival time, higher T/C = longer survival.
Setting [1] is: dose: 100.0 mg/kg/injection, schedule: Q01DX005 (ip), vehicle: saline with Tween-80.
Setting [2] is: dose: 200.0 mg/kg/injection, schedule: Q01DX005 (ip), vehicle: saline with Tween-80.
[3] abbreviates: dose: 100.0 mg/kg/injection, schedule: Q01DX005 (ip), vehicle: Klucel (hydroxypropylcellulose) (HPC).
Setting [4] is: dose: 200.0 mg/kg/injection, schedule: Q01DX005 (ip), vehicle: Klucel (hydroxypropylcellulose) (HPC).
[5] abbreviates: dose: 400.0 mg/kg/injection, schedule: Q04DX003 (ip), vehicle: saline with Tween-80.
Setting [6] is: dose: 240.0 mg/kg/injection, schedule: Q01DX005 (ip), vehicle: Klucel (hydroxypropylcellulose) (HPC).
[7] abbreviates: dose: 50.0 mg/kg/injection, schedule: Q01DX009 (ip), vehicle: Klucel (hydroxypropylcellulose) (HPC).
Where [8] appears, read: dose: 100.0 mg/kg/injection, schedule: Q01DX009 (ip), vehicle: Klucel (hydroxypropylcellulose) (HPC).

The list shows only some results of the screen, not a fair sample: it is rich in T/C values a quarter to a half above the control, in often repeated tests (any T/C) and in doses without a T/C. Further doses and runs are listed elsewhere. T/C is the treated group as % of the vehicle group. Some doses have a count of surviving animals in place of a T/C: the source holds a T/C of zero for them, seemingly a mark for toxic or unscored doses. Some survivor counts are full or nearly so, which does not show that the dose was tolerated: survival well below the control is almost never listed, so the zero probably covers shortened survival too. Counts of survivors are from the toxicity check (mostly the fifth day) where no day follows; animals may have died later. Schedules are NCI's codes, read here as Q, the interval in days (D) or hours (H), X, the number of doses. Where survival is the endpoint, the PubChem record calls one and a half times the control and up active, and a quarter to a half above the control has no call in these data; cut-offs in other NCI protocols can differ. Some doses were run more than once; the values are given in rising order. Some T/C values are followed by the survivors on the day toxicity was checked, most often the fifth; without a count, all were alive then.

Turning to `CN(C)CC(CN(C)C)C(=O)c1ccc2c(c1)OCO2`, the survivor count by setting is: (dose: 60.0 mg/kg/injection, schedule: Q01DX005 (ip), vehicle: saline) 3 of 6; (dose: 120.0 mg/kg/injection, schedule: Q01DX005 (ip), vehicle: saline) 0 of 6; (dose: 240.0 mg/kg/injection, schedule: Q01DX005 (ip), vehicle: saline) 0 of 6.
For the compound `C/C(=N\Nc1cc(C)c2ccccc2n1)c1ccccn1`, the survivor count is reported as 6 of 6 under setting [1] and 3 of 6 under setting [2].
Consider `O=[Se](O)O`, for which the T/C (dose: 3.12 mg/kg/injection, schedule: Q01DX005 (ip), vehicle: water) was 126 % of control. In addition, the survivor count is listed as 3 of 6 (dose: 6.25 mg/kg/injection, schedule: Q01DX005 (ip), vehicle: water); 0 of 5 (dose: 12.5 mg/kg/injection, schedule: Q01DX005 (ip), vehicle: water); 0 of 5 (dose: 25.0 mg/kg/injection, schedule: Q01DX005 (ip), vehicle: water); 0 of 5 (dose: 50.0 mg/kg/injection, schedule: Q01DX005 (ip), vehicle: water); 0 of 5 (dose: 100.0 mg/kg/injection, schedule: Q01DX005 (ip), vehicle: water); 0 of 5 (dose: 200.0 mg/kg/injection, schedule: Q01DX005 (ip), vehicle: water).
For the compound `Cc1ccc(/C=N\NC(=O)NN)cc1`, the survivor count is listed as 3 of 6 under setting [3] and 0 of 6 under setting [4].
Take `CC(C)CNS(=O)(=O)c1ncnc2nc[nH]c12`: the survivor count under setting [5] is 2 of 6.
As for `OCCN1CCN(CC/C=C2\c3ccccc3COc3ccc(Cl)cc32)CC1`, the T/C runs as follows: (dose: 25.0 mg/kg/injection, schedule: Q04DX003 (ip), vehicle: saline) 125 % of control; (dose: 50.0 mg/kg/injection, schedule: Q04DX003 (ip), vehicle: saline) 145 % of control [5 of 6 alive].
In the case of `O=C(Nc1ccc(C(=O)O)cc1)Nc1ccc(C(=O)O)cc1`, the survivor count (dose: 400.0 mg/kg/injection, schedule: Q04DX002 (ip), vehicle: Klucel (hydroxypropylcellulose) (HPC)) is 4 of 6.
For the compound `Clc1ccc(-c2nnc(Nc3ccnc4cc(Cl)ccc34)s2)cc1`, the survivor count is on record as 3 of 6 under setting [1] and 0 of 6 under setting [2].
Consider `CN=C(c1ccc(NC(=O)c2cccc(C(=O)Nc3ccc(C(=NC)N(C)C)cc3)c2)cc1)N(C)C`, for which the survivor count is, setting by setting: (dose: 12.5 mg/kg/injection, schedule: Q01DX005 (ip), vehicle: saline) 1 of 6; (dose: 25.0 mg/kg/injection, schedule: Q01DX005 (ip), vehicle: saline) 0 of 6; (dose: 50.0 mg/kg/injection, schedule: Q01DX005 (ip), vehicle: saline) 0 of 6; (dose: 100.0 mg/kg/injection, schedule: Q01DX005 (ip), vehicle: saline) 0 of 6; (dose: 200.0 mg/kg/injection, schedule: Q01DX005 (ip), vehicle: saline) 0 of 6.
In the case of `COC(=O)c1ccc(C(=O)OC)c2nc3cc(C)c(C)cc3nc12`, under setting [6], the survivor count was 1 of 6.
Regarding `O=NNc1ccc(S(=O)(=O)c2ccc(NN=O)cc2)cc1`, for the setting “dose: 150.0 mg/kg/injection, schedule: Q01DX009 (ip), vehicle: water”, the survivor count is 3 of 6.
For `CC(C)(C)N(Cc1ccccc1)C(O)Cc1c(-c2ccccc2)c(-c2ccccc2)c2n1CCC2` (stereo not given), under setting [6], the survivor count is 6 of 6.
As to `Cc1cc2nc(CC(=O)c3cccc([N+](=O)[O-])c3)c(=O)[nH]c2cc1C`, the survivor count (dose: 60.0 mg/kg/injection, schedule: Q01DX005 (ip), vehicle: saline with Tween-80) is on record as 6 of 6; the survivor count (dose: 120.0 mg/kg/injection, schedule: Q01DX005 (ip), vehicle: saline with Tween-80) is 6 of 6; the survivor count (dose: 240.0 mg/kg/injection, schedule: Q01DX005 (ip), vehicle: saline with Tween-80) is 2 of 6.
For the compound `CCOC(=O)Nc1cc(NC/C(=N/O)c2ccc(C(F)(F)F)cc2)c([N+](=O)[O-])c(N)n1`, the survivor count (dose: 200.0 mg/kg/injection, schedule: Q01DX001 (ip), vehicle: saline with Tween-80) is listed as 6 of 6.
For the compound `CC(C)(C)C1CCC(P(C)(C)=S)CC1` (stereo not given), the survivor count is listed as 6 of 6 under setting [7] and 6 of 6 under setting [8].
Turning to `COc1cccc2c1C(=O)c1c(O)c3c(c(O)c1C2=O)C[C@@](O)(C(O)O)C[C@@H]3OC1CC(N)C(O)C(C)O1` (stereo not given in full), the T/C is, setting by setting: (dose: 1.0 mg/kg/injection, schedule: Q01DX009 (ip), vehicle: water) 135 % of control; (dose: 8.0 mg/kg/injection, schedule: Q01DX009 (ip), vehicle: water) 135 % of control; (dose: 12.5 mg/kg/injection, schedule: Q04DX003 (ip), vehicle: water) 131 % of control; (dose: 25.0 mg/kg/injection, schedule: Q04DX003 (ip), vehicle: water, evaluated on day 30) 140 % of control; (dose: 25.0 mg/kg/injection, schedule: Q04DX003 (ip), vehicle: water, evaluated on day 45) 127 % of control. Besides, the survivor count (dose: 16.0 mg/kg/injection, schedule: Q01DX009 (ip), vehicle: water) is 3 of 3.
Take `COc1ccc2c(C)cc(NN)nc2c1`: the survivor count (dose: 25.0 mg/kg/injection, schedule: Q01DX005 (ip), vehicle: Klucel (hydroxypropylcellulose) (HPC)) is recorded as 2 of 6; the survivor count (dose: 50.0 mg/kg/injection, schedule: Q01DX005 (ip), vehicle: Klucel (hydroxypropylcellulose) (HPC)) is 0 of 6; the survivor count under setting [3] is 0 of 6; the survivor count under setting [4] is 0 of 6.
Regarding `CCNC(=O)Oc1ccc[nH]c1=O`, the T/C is 126 % of control (dose: 100.0 mg/kg/injection, schedule: Q01DX009 (ip), vehicle: saline); 129 % of control (dose: 200.0 mg/kg/injection, schedule: Q01DX009 (ip), vehicle: saline); 125 % of control [5 of 6 alive] (dose: 400.0 mg/kg/injection, schedule: Q01DX009 (sc), vehicle: water). Moreover, the survivor count is, setting by setting: (dose: 400.0 mg/kg/injection, schedule: Q01DX009 (ip), vehicle: saline) 1 of 6; (dose: 600.0 mg/kg/injection, schedule: Q01DX009 (ip), vehicle: saline) 0 of 6.
In the case of `COc1cccc2c1C(=O)c1c(O)c3c(c(O)c1C2=O)CC(O)(/C(C)=N/NC(=O)C(=O)N/N=C(\C)C1(O)Cc2c(O)c4c(c(O)c2C(OC2CC(N)C(O)C(C)O2)C1)C(=O)c1c(OC)cccc1C4=O)CC3OC1CC(N)C(O)C(C)O1` (stereo not given), where the note is “dose: 0.78 mg/kg/injection, schedule: Q01DX009 (ip), vehicle: water”, the T/C was 139 and 144 % of control. Under “dose: 25.0 mg/kg/injection, schedule: Q01DX009 (ip), vehicle: water”, the survivor count was 3 of 3.
With `[O-][n+]1c(-c2ccccc2)c(Cl)c(-c2ccccc2)n1O`, the survivor count runs as follows: (dose: 120.0 mg/kg/injection, schedule: Q01DX005 (ip), vehicle: Klucel + Tween-80) 2 of 6; (dose: 240.0 mg/kg/injection, schedule: Q01DX005 (ip), vehicle: Klucel + Tween-80) 0 of 6.
For the compound `CC(C)N1C(=O)N(Cl)C2C1N(Cl)C(=O)N2Cl` (stereo not given), the T/C under setting [1] was 126 % of control.
Turning to `CC(C)COP(=O)(OCC(C)C)OCC(C)C.CC(C)COP(=O)(OCC(C)C)OCC(C)C.CC(C)COP(=O)(OCC(C)C)OCC(C)C.CC(C)COP(=O)(OCC(C)C)OCC(C)C.O.O.[Co+2].[O-][Cl+3]([O-])([O-])O`, the survivor count (dose: 200.0 mg/kg/injection, schedule: Q04DX003 (ip), vehicle: saline with Tween-80) is 1 of 6 and the survivor count under setting [5] is 0 of 6.
Take `O=C1CC(c2ccccc2)C(=O)N1CN1CC=CCC1` (stereo not given): the T/C by setting is: (dose: 200.0 mg/kg/injection, schedule: Q01DX001 (ip), vehicle: Klucel (hydroxypropylcellulose) (HPC)) 127 % of control; (dose: 400.0 mg/kg/injection, schedule: Q01DX001 (ip), vehicle: Klucel (hydroxypropylcellulose) (HPC)) 126 % of control.
For `Cc1ccc(NC(=S)SCc2ccc3c(c2)OCO3)cc1Br`, the T/C is, setting by setting: under setting [7], 125 % of control; under setting [8], 132 % of control.
